Results as given in article PMC11040670, “Mechanistic and Kinetic Insights into Cellular Uptake of Biomimetic Dinitrosyl Iron Complexes and Intracellular Delivery of NO for Activation of Cytoprotective HO-1” (JACS Au, 2024).

System: MSC/N2a/HCEC
Assay: Whole-cell EPR, results stated jointly for MSC/N2a/HCEC
Format: cell-based
Conditions: for formation of mononuclear DNICs relative to administered dinuclear DNIC (spin quantitation at tmax): MSC/N2a/HCEC, standard [PPN][(NO)2Fe(S5)]
Description: Cellular uptake of DNIC–COOH and intracellular formation/decomposition of mononuclear DNICs in MSC/N2a/HCEC cells were investigated using EPR spectroscopy. Briefly, cells were seeded into two (or one) 100 mm dish(es) at a density of 2 × 10^6 cells/dish and incubated at 37 °C overnight. On the next day, cells were treated with 100 μM of DNIC–COOH (or 100 μM of DNIC–COOH to N2a and 75 μM of DNIC–COOH to HCEC) and incubated for 0, 0.5, 1, 2, 3, 4, 8, and 24 h, respectively. After removal of the supernatant solution, cells were washed with DPBS before addition of 1 mL of trypsin (0.05%)/EDTA (0.53 mM) and incubation for 5 min at 37 °C. After the obtained cell suspension solutions from two 100 mm dishes were combined and centrifuged at 100g for 5 min, the supernatant was removed before addition of 100 μL of αMEM to DNIC-treated MSC (or MEM to DNIC-treated N2a and HSFM to DNIC-treated HCEC). This solution was then transferred into EPR quartz tube and frozen in N2(l) before the EPR measurements. For each measured EPR spectrum, double integration was executed to obtain the integrated EPR intensity under each condition. Moreover, time-dependent decay of integrated EPR signal intensity after treatment of DNIC–COOH was fit to pseudo-first-order kinetics in order to determine the intracellular half-life for EPR-active mononuclear DNIC. Three independent experiments were executed to measure the average half-life for intracellular decomposition of EPR-active mononuclear DNIC after treatment with DNIC–COOH at 37 °C. On the other hand, at the time point with maximum integrated EPR signal intensity, spin quantitation of intracellular EPR-active DNICs was performed using mononuclear DNIC [PPN][(NO)2Fe(S5)] as a standard according to the methodology used in the previous work.[50] Cellular uptake of DNIC–COOMe (2.5 μM to MSC, 10 μM to N2a, or 1 μM to HCEC) and intracellular formation/decomposition of EPR-active mononuclear DNICs were investigated using EPR spectroscopy in a similar manner.
Studies of cellular uptake mechanisms were investigated using EPR spectroscopy in combination with pretreatments of alternative inhibitors. After the MSC cells were seeded into two (or one) 100 mm dish(es) at a density of 2 × 10^6 cells/dish and incubated at 37 °C overnight, sequential treatments of 50 μM of NEM for 0.5 h and 100 μM of DNIC–COOH for 2 h were performed before the treated MSC cells were collected for EPR measurement following the procedure described above. […]

O=[N][Fe]1([N]=O)[SH](CCC(=O)O)[Fe]([N]=O)([N]=O)[SH]1CCC(=O)O (stereo not shown) [DNIC–COOH, [(NO)2Fe(μ-SCH2CH2COOH)2Fe(NO)2]]
formation of mononuclear DNICs relative to administered dinuclear DNIC (spin quantitation at tmax): ~1% | change of whole-cell EPR signal intensity (pretreatment of NEM (Figure S10)): no change | change of whole-cell EPR signal intensity (using NEM-treated FBS (Figure S10)): slight increase

COC(=O)CC[SH]1[Fe]([N]=O)([N]=O)[SH](CCC(=O)OC)[Fe]1([N]=O)[N]=O (stereo not shown) [DNIC–COOMe, [(NO)2Fe(μ-SCH2CH2COOCH3)2Fe(NO)2]]
formation of mononuclear DNICs relative to administered dinuclear DNIC (spin quantitation at tmax): 20–40%
